In PubChem BioAssay AID248 (DTP/NCI, 2004):
The list does not hold the whole screen: it gathers tests that were run many times, whatever their T/C, doses with no T/C, and many T/C values between a quarter and a half above the control. Further doses and runs are listed elsewhere. T/C: endpoint of the treated group in % of that of the vehicle group. Some entries give survivors of the animals treated and no T/C: the source files T/C as zero there, which appears to mark a toxic dose or a test without result, not a measured value. Some survivor counts are full or nearly so, which does not show that the dose was tolerated: the source hardly ever lists a survival T/C far under the control, and the zero likely stands for such cases as well. Counts of survivors are from the toxicity check (mostly the fifth day) where no day follows; animals may have died later. Schedule codes are those of the source, taken here to give the interval after Q, in days (D) or hours (H), and the number of doses after X. Some doses were run more than once; the values are given in rising order. Some schedules carry Z or #; the key to these is not given. For survival time, the PubChem record calls one and a half times the control and up active, and a quarter to a half above the control has no call in these data; cut-offs in other NCI protocols can differ. Some T/C values carry the count of animals alive at the toxicity check (mostly the fifth day); where none is given, no animal had died by that day.

Tested on: L1210 leukemia ip in BDF1 mice, survival T/C
Experiment: NCI In Vivo Anticancer Drug Screen. Data for tumor model L1210 Leukemia (intraperitoneal) in B6D2F1 (BDF1) mice
Conditions: T/C endpoint: mean survival time, higher T/C = longer survival
[1] = dose: 40.0 mg/kg/injection, schedule: Q01DX001 (ip), vehicle: saline
[2] = dose: 300.0 mg/kg/injection, schedule: Q01DX001 (ip), vehicle: saline
[3] = dose: 200.0 mg/kg/injection, schedule: Q01DX001 (ip), vehicle: saline
[4] = dose: 400.0 mg/kg/injection, schedule: Q01DX001 (ip), vehicle: saline
[5] = dose: 400.0 mg/kg/injection, schedule: Q01DX001 (ip), vehicle: carboxymethylcellulose (CMC)
[6] = dose: 200.0 mg/kg/injection, schedule: Q04DX002 (ip), vehicle: saline with Tween-80

CN[C@H]1CCc2cc(OC)c(OC)c(OC)c2-c2ccc(OC)c(=O)cc21 was tested, and the T/C (dose: 4.0 mg/kg/injection, schedule: Q03HX008 (ip), vehicle: saline) was 129 % of control, the T/C (dose: 8.0 mg/kg/injection, schedule: Q01DX009 (ip), vehicle: saline) was 137 % of control and the T/C (dose: 8.0 mg/kg/injection, schedule: Q## X024 (ip), vehicle: saline) was 143 % of control. The survivor count (dose: 16.0 mg/kg/injection, schedule: Q01DX004 (oral), vehicle: saline) was 6 of 10, the T/C (dose: 16.0 mg/kg/injection, schedule: Q01DX009 (ip), vehicle: saline) was 139 % of control and the survivor count (dose: 16.0 mg/kg/injection, schedule: Q03HX008 (ip), vehicle: saline) was 1 of 10. For the same compound, the T/C (dose: 16.0 mg/kg/injection, schedule: Q## X008 (ip), vehicle: saline) was 135 % of control [8 of 10 alive], the survivor count (dose: 18.0 mg/kg/injection, schedule: Q01DX001 (ip), vehicle: saline) was 2 of 4 and the T/C (dose: 20.0 mg/kg/injection, schedule: Q01DX009 (ip), vehicle: saline) was 142 % of control [4 of 6 alive]. For the same compound, the survivor count (dose: 26.0 mg/kg/injection, schedule: Q01DX001 (ip), vehicle: saline) was 2 of 4, the T/C (dose: 30.0 mg/kg/injection, schedule: Q01DX009 (ip), vehicle: saline) was 141 % of control and the T/C (dose: 32.0 mg/kg/injection, schedule: Q01DX004 (ip), vehicle: saline) was 136 % of control. For the same compound, the survivor count (dose: 32.0 mg/kg/injection, schedule: Q01DX009 (oral), vehicle: saline) was 1 of 10, the T/C (dose: 32.0 mg/kg/injection, schedule: Q## X008 (ip), vehicle: saline) was 134 % of control [9 of 10 alive] and the survivor count (dose: 32.0 mg/kg/injection, schedule: Q## X024 (ip), vehicle: saline) was 0 of 10. For the same compound, the survivor count [1] was 1 of 4, the survivor count (dose: 60.0 mg/kg/injection, schedule: Q01DX001 (ip), vehicle: saline) was 0 of 4 and the survivor count (dose: 64.0 mg/kg/injection, schedule: Q01DX001 (oral), vehicle: saline) was 6 of 10. The survivor count (dose: 64.0 mg/kg/injection, schedule: Q01DX009 (ip), vehicle: saline) was 4 of 10, the survivor count (dose: 64.0 mg/kg/injection, schedule: Q01DX009 (oral), vehicle: saline) was 0 of 10 and the T/C (dose: 64.0 mg/kg/injection, schedule: Q## X002 (ip), vehicle: saline) was 134 % of control. For the same compound, the T/C (dose: 64.0 mg/kg/injection, schedule: Q## X003 (ip), vehicle: saline) was 147 % of control, the survivor count (dose: 64.0 mg/kg/injection, schedule: Q## X008 (ip), vehicle: saline) was 6 of 10 and the survivor count (dose: 64.0 mg/kg/injection, schedule: Q## X024 (ip), vehicle: saline) was 0 of 10. For the same compound, the survivor count (dose: 128.0 mg/kg/injection, schedule: Q01DX001 (oral), vehicle: saline) was 2 of 10, the survivor count (dose: 128.0 mg/kg/injection, schedule: Q01DX009 (oral), vehicle: saline) was 0 of 10 and the survivor count (dose: 256.0 mg/kg/injection, schedule: Q01DX001 (oral), vehicle: saline) was 2 of 10. The survivor count (dose: 256.0 mg/kg/injection, schedule: Q01DX009 (oral), vehicle: saline) was 0 of 10.

In the case of N#Cc1c(CBr)ccc2ccccc12, the survivor count (dose: 150.0 mg/kg/injection, schedule: Q01DX001 (ip), vehicle: saline) is reported as 3 of 6 and the survivor count [2] is reported as 1 of 6.

In the case of C/C=C1\CCCCN(Cc2ccccc2)CCC1, the survivor count [2] is reported as 1 of 6.

With CCOC(=O)c1cc(Cl)c(O)c(Cl)c1 the survivor count (dose: 200.0 mg/kg/injection, schedule: Q01DX009 (ip), vehicle: gum acacia) was 2 of 6 and the survivor count (dose: 400.0 mg/kg/injection, schedule: Q01DX009 (ip), vehicle: gum acacia) was 0 of 6.

CCCCCCCCCCCC[n+]1cccc(C)c1 was tested, and the survivor count (dose: 10.0 mg/kg/injection, schedule: Q01DX001 (ip), vehicle: saline) was 2 of 4, the survivor count (dose: 20.0 mg/kg/injection, schedule: Q01DX001 (ip), vehicle: saline) was 2 of 4 and the survivor count [1] was 0 of 4. For the same compound, the survivor count (dose: 50.0 mg/kg/injection, schedule: Q01DX001 (ip), vehicle: saline) was 0 of 4, the survivor count (dose: 80.0 mg/kg/injection, schedule: Q01DX001 (ip), vehicle: saline) was 0 of 4 and the survivor count (dose: 100.0 mg/kg/injection, schedule: Q01DX001 (ip), vehicle: saline) was 0 of 4. The survivor count [3] was 0 of 4 and the survivor count [4] was 0 of 4.

With CC(=O)c1ccc(N2CCN(C)CC2)cc1 the survivor count [3] was 2 of 4 and the survivor count [4] was 0 of 4.

O=C(CC(=O)CC(O)(C(F)(F)F)C(F)(F)F)CC(O)(C(F)(F)F)C(F)(F)F was tested, and the survivor count (dose: 10.0 mg/kg/injection, schedule: Q01DX009 (ip), vehicle: saline) was 0 of 6.

With O=C(OC1(c2ccccc2)CC2CC1c1ccccc12)c1ccc([N+](=O)[O-])cc1 (stereo not given) the survivor count [5] was 4 of 4.

In the case of CC(=O)Nc1ccccc1.[Hg], the survivor count (dose: 6.25 mg/kg/injection, schedule: Q01DX009 (ip), vehicle: saline with Tween-80) is reported as 3 of 6, the survivor count (dose: 100.0 mg/kg/injection, schedule: Q04DX002 (ip), vehicle: saline with Tween-80) is reported as 0 of 3 and the survivor count [6] is reported as 0 of 3. The survivor count (dose: 400.0 mg/kg/injection, schedule: Q04DX002 (ip), vehicle: saline with Tween-80) was 0 of 3.

With NC(N)=Nc1ccc(NC(=O)c2ccc(C(=O)Nc3ccc(N=C(N)N)cc3)cc2)cc1 the survivor count (dose: 15.0 mg/kg/injection, schedule: Q01DX Z (ip), vehicle: carboxymethylcellulose (CMC)) was 6 of 6, the survivor count (dose: 15.0 mg/kg/injection, schedule: Q01DX Z (ip), vehicle: methylcellulose (MC)) was 6 of 6 and the survivor count (dose: 30.0 mg/kg/injection, schedule: Q01DX Z (ip), vehicle: methylcellulose (MC)) was 0 of 6. For the same compound, the survivor count (dose: 60.0 mg/kg/injection, schedule: Q01DX Z (ip), vehicle: methylcellulose (MC)) was 0 of 6 and the survivor count (dose: 120.0 mg/kg/injection, schedule: Q01DX Z (ip), vehicle: methylcellulose (MC)) was 0 of 6.

With O=C1CCOP(=O)(NCCCl)N1CCCl (stereo not given) the survivor count (dose: 100.0 mg/kg/injection, schedule: Q04DX002 (ip), vehicle: DMSO) was 3 of 3, the survivor count (dose: 200.0 mg/kg/injection, schedule: Q04DX002 (ip), vehicle: DMSO) was 3 of 3 and the T/C (dose: 200.0 mg/kg/injection, schedule: Q04DX002 (ip), vehicle: saline) was 136 % of control. The survivor count (dose: 400.0 mg/kg/injection, schedule: Q04DX002 (ip), vehicle: DMSO) was 3 of 3.

In the case of O=C(O)c1cccc2c1C(=O)c1cc(Cl)ccc1-2, the survivor count (dose: 300.0 mg/kg/injection, schedule: Q01DX001 (ip), vehicle: carboxymethylcellulose (CMC)) is reported as 0 of 6.

In the case of Cc1c(Cl)cccc1NC(=O)Oc1ccc(-c2ccccc2)cc1, the survivor count (dose: 400.0 mg/kg/injection, schedule: Q01DX009 (ip), vehicle: saline with Tween-80) is reported as 3 of 3 and 6 of 6.

For C/C=C/Sc1ccccc1C(=O)O, the survivor count [5] was 2 of 6.

In the case of N#CCCN(CCCN1CCOCC1)C(=S)Nc1cccc(C(F)(F)F)c1, the survivor count [6] is reported as 3 of 3.

For O=C(O)CCN1CCN(c2cccc(Cl)c2)CC1, the survivor count [4] was 0 of 6.

For Cc1nc(N)[nH]c(=O)c1CCCNS(=O)(=O)c1ccc(C(=O)O)cc1, the survivor count (dose: 100.0 mg/kg/injection, schedule: Q04DX002 (ip), vehicle: Klucel (hydroxypropylcellulose) (HPC)) was 3 of 3.

For Nc1[nH]c(=S)[nH]c(=S)c1N, the survivor count (dose: 250.0 mg/kg/injection, schedule: Q01DX Z (ip), vehicle: methylcellulose (MC)) was 2 of 6 and the survivor count (dose: 500.0 mg/kg/injection, schedule: Q01DX Z (ip), vehicle: methylcellulose (MC)) was 0 of 6.

With C[N+]12C(=O)CC3OCC=C4C[N+]5(C)CCC6(c7ccccc71)C2C3C4CC65O (stereo not given) the survivor count (dose: 38.0 mg/kg/injection, schedule: Q01DX001 (ip), vehicle: other) was 0 of 6, the survivor count (dose: 75.0 mg/kg/injection, schedule: Q01DX001 (ip), vehicle: other) was 0 of 6 and the survivor count (dose: 150.0 mg/kg/injection, schedule: Q01DX001 (ip), vehicle: other) was 0 of 6. The survivor count (dose: 300.0 mg/kg/injection, schedule: Q01DX001 (ip), vehicle: other) was 0 of 6.
